{"source": "patent US20240091359A1", "about": "“NOVEL ESR1 DERIVED PEPTIDES AND USES THEREOF FOR NEOANTIGEN THERAPY” (H. LEE MOFFITT CANCER CENTER AND RESEARCH INSTITUTE, INC., priority 2021, published 2024)", "test_system": "CD4+ Th1 cells", "experiment": "ER peptide library screening: IFN-γ ELISA of supernatants from iDC-CD4+ Th1 co-culture after priming with peptide-pulsed DC1", "format": "cell-based, human", "conditions": "native ER individual peptide screening", "excerpt": "176. We then take this peptide library and proceed with the screening process. Briefly, human autologous monocyte fractions from healthy donors and breast cancer patients are pulsed with class II peptides and are rapidly matured to a type-1 polarized dendritic cell (DC1) through the sequential addition of rhGM-CSF, rhIL-4, rhIFN-γ and LPS. Mature-peptide pulsed DC1's are then put in co-culture with autologous naïve T-cells, where these T-cells are presented with peptides via MHC-II molecules and are polarized to a type-1 effector CD4+ cell through DC1 secretion of IL-12. Additionally, IL-2 is added to the coculture to induce the rapid expansion of CD4+ Th1 cells, after 8-10 days of coculture, the now primed CD4+ Th1 cells are re-stimulated with immature dendritic cells presenting the matching class II peptide or an irrelevant class II negative control. Supernatants from the iDC-CD4+ Th1 co-culture are then screened through IFN-γ ELISA to measure Th1-response. An antigen specific response is considered to be significant as approximately a 2-fold increase in IFN-γ production (pg/mL) compared to the control. The final in vitro screening step is then to do a reverse sensitization. Where the primed CD4 T cells are re-stimulated with immature dendritic cells pulsed with the full tumor antigen in question, or the full protein. This step is important to determine if the identified immunogenic epitope can be recognized by T-cells primed to only a small amino acid sequence apart of the much larger protein.\n178. The screening process (FIG. 3) of 10-5-1 is repeated on different samples as well to confirm commonalities in increased responses and reproducibility, ensuring that a response was not donor specific to keep track of common increased responses across donors and ultimately identify those reproducibly immunogenic peptides. The screening procedure follows the same experimental steps as mentioned before, and flows through a successive screening strategy, examining pools of 10 peptides, followed by pools of 5-peptides and eventually as individual peptides. This process allows for the rapid identification of the areas in the full protein sequence that may contain immunogenic peptides, rather than screening all peptides individually.\n185. From the 11 noted point mutations, we cross matched their locations within the class II sequences of the ER peptide library. From this, each point mutation was represented in three peptide sequences due to the 10-amino acid overlap between adjacent sequences within the library. This overlap helps to account for binding affinity within the MHC II open binding groove (Table 3) 186. From the 11 mutations, a peptide library of 33 peptides (three sequences per mutation) was created (Table 3). As a comparison, we also screened the corresponding native or un-mutated ER sequences side-by-side to see if the mutation induced an increase in Th1 response compared to the native sequence.", "note": "Some results were stated once for a whole list of compounds, not compound by compound."}
{"sequence": "AKAGLTLQQQHQRLA [P99, native ER library peptide]", "values": [{"measurement": "increase in IFN-γ production", "setting": "first sample (FIG. 6A, 6B)", "result": "≥ 1.5", "unit": "fold"}, {"measurement": "increase in IFN-γ production", "setting": "second sample (FIG. 6C, 6D)", "result": "greater than 1.5 fold"}]}
{"sequence": "HMSNKGMEHLYSMKC [P104, native ER library peptide]", "values": [{"measurement": "increase in IFN-γ production", "setting": "first sample (FIG. 6A, 6B)", "result": "≥ 1.5", "unit": "fold"}, {"measurement": "increase in IFN-γ production", "setting": "second sample (FIG. 6C, 6D)", "result": "greater than 1.5 fold"}]}
{"sequence": "YLENEPSGYTVREAG [P27, native ER library peptide]", "values": [{"measurement": "increase in IFN-γ production", "setting": "first sample (FIG. 6A, 6B)", "result": "≥ 1.5", "unit": "fold"}]}
{"sequence": "QQVPYYLENEPSGYT [P26, native ER library peptide]", "values": [{"measurement": "increase in IFN-γ production", "setting": "first sample (FIG. 6A, 6B)", "result": "≥ 1.5", "unit": "fold"}]}
